Measurements: the supplement of paper PMC10849652
This is one part of the list.

Chains of the proteins cited; added tags and fusions are not shown. Lines headed by an entry give the natural chain unless they say otherwise; changes in a name come on top.
UniProt Q8NCM8: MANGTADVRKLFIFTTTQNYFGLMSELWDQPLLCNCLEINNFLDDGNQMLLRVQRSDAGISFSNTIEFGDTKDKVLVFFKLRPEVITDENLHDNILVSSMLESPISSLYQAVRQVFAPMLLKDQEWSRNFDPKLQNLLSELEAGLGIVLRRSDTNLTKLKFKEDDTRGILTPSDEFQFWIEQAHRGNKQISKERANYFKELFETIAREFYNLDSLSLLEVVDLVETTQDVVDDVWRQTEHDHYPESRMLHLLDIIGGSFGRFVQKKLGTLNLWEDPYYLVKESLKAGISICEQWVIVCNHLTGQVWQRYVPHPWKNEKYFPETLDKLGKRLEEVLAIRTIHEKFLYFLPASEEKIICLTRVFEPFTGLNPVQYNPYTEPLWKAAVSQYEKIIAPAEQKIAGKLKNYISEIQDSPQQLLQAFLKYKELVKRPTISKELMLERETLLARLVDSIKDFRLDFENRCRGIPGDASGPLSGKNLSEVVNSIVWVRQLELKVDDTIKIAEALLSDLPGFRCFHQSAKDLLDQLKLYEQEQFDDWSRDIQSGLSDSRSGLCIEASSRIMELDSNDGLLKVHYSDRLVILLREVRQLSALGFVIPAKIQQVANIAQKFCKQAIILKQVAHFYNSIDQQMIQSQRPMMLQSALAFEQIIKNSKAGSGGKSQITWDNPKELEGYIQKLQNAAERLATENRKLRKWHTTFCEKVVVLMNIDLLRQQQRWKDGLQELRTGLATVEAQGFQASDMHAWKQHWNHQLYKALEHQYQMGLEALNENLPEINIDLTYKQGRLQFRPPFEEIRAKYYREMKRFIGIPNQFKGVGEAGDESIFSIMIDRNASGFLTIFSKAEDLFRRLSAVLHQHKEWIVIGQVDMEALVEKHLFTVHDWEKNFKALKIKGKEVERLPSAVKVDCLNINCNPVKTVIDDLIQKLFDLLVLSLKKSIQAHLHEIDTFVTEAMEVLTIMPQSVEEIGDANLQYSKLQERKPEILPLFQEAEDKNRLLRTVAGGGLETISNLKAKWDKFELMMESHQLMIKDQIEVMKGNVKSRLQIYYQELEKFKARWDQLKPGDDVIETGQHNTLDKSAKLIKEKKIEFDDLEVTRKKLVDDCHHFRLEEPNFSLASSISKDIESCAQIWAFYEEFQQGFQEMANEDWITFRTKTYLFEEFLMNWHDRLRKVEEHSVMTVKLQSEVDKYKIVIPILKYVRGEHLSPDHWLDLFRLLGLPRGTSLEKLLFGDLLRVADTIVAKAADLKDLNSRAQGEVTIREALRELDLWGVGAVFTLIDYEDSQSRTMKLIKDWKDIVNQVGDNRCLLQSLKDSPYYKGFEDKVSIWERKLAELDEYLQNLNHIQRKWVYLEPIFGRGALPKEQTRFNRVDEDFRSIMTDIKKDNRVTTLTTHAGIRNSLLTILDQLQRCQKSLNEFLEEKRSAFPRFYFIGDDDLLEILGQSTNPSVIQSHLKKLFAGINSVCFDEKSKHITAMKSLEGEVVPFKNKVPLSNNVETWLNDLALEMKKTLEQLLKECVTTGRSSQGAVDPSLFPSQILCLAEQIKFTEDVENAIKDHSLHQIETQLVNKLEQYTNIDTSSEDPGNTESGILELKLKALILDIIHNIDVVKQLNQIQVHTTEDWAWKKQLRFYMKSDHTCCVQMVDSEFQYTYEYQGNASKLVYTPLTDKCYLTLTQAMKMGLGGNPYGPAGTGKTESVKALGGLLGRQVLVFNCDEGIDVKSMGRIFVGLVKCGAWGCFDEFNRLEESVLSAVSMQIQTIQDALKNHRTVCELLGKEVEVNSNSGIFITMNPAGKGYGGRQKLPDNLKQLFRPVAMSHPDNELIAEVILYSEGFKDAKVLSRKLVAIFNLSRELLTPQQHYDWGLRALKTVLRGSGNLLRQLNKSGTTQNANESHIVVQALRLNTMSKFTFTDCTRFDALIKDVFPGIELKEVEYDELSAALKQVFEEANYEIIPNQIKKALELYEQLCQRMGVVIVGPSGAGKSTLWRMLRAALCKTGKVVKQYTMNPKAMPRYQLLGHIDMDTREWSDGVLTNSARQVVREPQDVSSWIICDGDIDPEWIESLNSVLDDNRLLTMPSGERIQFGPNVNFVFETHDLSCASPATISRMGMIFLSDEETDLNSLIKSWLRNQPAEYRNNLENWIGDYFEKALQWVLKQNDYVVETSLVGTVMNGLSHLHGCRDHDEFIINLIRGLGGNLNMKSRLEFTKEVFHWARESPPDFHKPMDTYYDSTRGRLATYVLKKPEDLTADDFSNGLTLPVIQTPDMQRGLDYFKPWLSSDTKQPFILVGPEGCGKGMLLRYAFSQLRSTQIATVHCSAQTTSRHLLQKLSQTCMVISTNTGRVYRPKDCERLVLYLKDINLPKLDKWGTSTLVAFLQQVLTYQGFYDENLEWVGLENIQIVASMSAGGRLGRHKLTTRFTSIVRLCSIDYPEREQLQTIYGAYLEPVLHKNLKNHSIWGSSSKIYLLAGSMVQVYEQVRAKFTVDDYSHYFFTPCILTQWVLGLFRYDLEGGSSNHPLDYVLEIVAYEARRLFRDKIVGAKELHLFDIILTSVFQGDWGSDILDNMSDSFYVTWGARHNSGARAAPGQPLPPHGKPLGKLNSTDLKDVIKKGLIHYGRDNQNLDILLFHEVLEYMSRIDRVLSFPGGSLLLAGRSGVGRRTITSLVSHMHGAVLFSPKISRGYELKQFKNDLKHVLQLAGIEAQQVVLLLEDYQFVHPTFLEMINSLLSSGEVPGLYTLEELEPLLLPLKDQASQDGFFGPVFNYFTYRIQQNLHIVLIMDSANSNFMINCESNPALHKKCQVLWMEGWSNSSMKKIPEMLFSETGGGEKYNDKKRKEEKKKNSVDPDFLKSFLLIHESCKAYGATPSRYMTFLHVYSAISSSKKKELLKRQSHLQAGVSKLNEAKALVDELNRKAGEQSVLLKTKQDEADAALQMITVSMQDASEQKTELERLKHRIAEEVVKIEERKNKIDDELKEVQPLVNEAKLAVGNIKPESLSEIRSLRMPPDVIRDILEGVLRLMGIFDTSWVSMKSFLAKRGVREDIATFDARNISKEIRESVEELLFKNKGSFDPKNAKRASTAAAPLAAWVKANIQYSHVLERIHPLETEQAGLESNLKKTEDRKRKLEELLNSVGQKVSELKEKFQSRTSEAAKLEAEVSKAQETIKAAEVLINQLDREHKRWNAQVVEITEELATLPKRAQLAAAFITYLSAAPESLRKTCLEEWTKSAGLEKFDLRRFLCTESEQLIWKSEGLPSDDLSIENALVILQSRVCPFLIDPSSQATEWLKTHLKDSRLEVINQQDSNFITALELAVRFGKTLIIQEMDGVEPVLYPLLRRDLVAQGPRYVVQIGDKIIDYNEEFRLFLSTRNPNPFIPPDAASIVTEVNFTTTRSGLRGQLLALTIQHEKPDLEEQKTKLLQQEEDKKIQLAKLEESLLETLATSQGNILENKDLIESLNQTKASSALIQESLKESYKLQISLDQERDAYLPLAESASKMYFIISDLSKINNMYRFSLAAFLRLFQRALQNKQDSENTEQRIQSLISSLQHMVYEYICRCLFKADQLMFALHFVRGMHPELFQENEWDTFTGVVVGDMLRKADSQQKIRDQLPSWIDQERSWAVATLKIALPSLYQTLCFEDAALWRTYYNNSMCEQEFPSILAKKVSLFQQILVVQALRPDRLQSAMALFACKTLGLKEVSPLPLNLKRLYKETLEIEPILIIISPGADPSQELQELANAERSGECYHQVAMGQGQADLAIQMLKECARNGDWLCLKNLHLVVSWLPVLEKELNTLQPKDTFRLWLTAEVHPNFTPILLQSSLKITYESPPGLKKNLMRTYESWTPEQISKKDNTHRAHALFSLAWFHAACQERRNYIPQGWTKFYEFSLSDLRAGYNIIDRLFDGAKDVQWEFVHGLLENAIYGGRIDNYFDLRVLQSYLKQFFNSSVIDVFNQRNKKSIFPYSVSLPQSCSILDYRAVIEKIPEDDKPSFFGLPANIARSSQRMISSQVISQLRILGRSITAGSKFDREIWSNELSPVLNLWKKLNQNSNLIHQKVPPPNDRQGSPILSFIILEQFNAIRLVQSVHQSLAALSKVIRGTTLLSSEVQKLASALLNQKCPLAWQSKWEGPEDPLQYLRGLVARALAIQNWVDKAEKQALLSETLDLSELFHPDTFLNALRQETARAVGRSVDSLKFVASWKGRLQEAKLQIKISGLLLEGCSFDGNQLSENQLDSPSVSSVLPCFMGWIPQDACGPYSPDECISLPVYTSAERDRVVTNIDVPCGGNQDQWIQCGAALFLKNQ
UniProt Q96FN9: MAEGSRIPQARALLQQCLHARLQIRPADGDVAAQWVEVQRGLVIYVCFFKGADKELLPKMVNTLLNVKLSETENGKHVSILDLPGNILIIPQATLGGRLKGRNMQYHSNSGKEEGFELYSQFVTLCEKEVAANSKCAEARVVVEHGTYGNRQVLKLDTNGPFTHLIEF
UniProt O75923: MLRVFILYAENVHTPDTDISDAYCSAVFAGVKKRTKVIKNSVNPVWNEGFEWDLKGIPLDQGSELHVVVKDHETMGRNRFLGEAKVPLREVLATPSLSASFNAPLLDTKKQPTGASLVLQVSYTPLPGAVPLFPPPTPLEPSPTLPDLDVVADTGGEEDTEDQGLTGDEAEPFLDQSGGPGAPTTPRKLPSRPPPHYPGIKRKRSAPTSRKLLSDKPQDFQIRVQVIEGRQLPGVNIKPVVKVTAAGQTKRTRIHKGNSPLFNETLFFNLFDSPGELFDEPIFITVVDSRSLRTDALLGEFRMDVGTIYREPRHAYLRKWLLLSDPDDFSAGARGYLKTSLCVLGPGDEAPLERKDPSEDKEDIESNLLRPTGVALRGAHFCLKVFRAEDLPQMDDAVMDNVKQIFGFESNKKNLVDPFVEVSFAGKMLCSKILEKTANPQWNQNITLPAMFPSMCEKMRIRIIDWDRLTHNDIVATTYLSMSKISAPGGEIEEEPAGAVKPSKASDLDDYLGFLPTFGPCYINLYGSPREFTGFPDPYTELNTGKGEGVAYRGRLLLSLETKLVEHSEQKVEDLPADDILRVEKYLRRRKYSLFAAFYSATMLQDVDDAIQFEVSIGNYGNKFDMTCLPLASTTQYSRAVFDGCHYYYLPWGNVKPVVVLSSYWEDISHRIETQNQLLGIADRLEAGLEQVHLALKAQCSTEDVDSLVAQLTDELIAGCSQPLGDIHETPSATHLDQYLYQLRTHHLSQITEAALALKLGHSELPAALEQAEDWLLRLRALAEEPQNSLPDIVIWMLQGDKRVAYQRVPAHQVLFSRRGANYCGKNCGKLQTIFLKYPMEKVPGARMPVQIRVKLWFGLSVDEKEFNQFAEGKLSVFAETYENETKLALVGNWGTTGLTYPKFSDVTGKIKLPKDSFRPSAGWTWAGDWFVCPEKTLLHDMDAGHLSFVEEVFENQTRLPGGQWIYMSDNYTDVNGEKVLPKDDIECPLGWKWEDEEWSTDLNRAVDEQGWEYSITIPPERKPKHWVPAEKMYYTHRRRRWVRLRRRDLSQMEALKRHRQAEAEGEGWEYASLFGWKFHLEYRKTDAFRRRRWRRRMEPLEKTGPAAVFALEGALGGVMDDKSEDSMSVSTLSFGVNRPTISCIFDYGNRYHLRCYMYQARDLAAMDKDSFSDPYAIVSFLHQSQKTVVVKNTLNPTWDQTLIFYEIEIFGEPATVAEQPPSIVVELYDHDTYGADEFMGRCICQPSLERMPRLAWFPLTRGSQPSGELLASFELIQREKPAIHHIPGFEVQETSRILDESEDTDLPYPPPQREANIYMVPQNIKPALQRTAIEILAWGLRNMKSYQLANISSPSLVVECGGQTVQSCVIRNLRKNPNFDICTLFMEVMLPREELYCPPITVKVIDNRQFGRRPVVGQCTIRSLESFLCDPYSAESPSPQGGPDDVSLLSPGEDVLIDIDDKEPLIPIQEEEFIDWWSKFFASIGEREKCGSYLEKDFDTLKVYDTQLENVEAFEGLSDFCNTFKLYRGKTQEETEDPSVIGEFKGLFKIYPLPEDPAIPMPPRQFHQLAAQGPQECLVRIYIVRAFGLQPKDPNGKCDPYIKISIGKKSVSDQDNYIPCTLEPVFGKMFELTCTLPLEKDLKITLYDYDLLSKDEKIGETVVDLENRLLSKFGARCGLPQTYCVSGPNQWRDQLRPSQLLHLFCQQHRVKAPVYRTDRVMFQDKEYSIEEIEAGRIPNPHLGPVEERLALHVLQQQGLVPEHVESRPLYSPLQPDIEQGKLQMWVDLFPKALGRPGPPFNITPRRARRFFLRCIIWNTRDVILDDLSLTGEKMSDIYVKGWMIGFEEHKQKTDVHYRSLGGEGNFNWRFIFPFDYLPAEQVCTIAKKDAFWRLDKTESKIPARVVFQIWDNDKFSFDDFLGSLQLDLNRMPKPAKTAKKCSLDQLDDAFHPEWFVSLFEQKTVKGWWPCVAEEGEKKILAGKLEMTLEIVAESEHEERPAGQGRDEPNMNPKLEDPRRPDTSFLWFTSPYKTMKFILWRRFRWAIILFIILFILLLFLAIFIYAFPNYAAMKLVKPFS

What follows are targets tested with Cc1cccc(CC(=O)N2CCc3c2ccc(-c2cn(C)c4ncnc(N)c24)c3F)n1 (assay: log2 fold change, soluble protein after heating vs DMSO (PISA); higher = thermal stabilisation; K562 lysate, 10 uM; active = over 0.2 and 3.5 SD of the protein, either way, in both replicates (recomputed)).
Outline: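 Quantification was by TMTpro 16plex LC-MS/MS with equalised channel sums, applied to the supernatant after 21,000xg for 90 min. Samples were crude K562 extract at 1 mg/mL protein in PBS pH 7.4 with 1 mM MgCl2, treated with 10 μM compound for 30 min, heated for 3 min across 48°C-58°C, pooled and brought to 0.5% NP-40 at 4°C. Values are log-two fold changes in thermal stability relative to solvent controls, from duplicates.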

log2 fold change, inactive:
DVL3 (UniProt Q92997) 0.194
DYNC2H1 isoform 2 (UniProt Q8NCM8) -0.036
ECHDC1 (UniProt Q9NTX5) 0.037
EDEM2 (UniProt Q9BV94) 0.031
EEF2KMT (UniProt Q96G04) 0.078
DTYMK (UniProt P23919) -0.029
DUSP22 isoform 2 (UniProt Q9NRW4) 0.037
EHHADH (UniProt Q08426) 0
EEF2K (UniProt O00418) -0.005
DTL (UniProt Q9NZJ0) 0.006
EED, A0A5F9ZI63 0.076
EID1 (UniProt Q9Y6B2) 0.069
EEA1 (UniProt Q15075) -0.044
EFCAB2 isoform 2 (UniProt Q5VUJ9) 0.054
EHBP1 isoform 2 (UniProt Q8NDI1) 0.026
EFNB1 (UniProt P98172) 0.195
DUSP3 (UniProt P51452) 0.031
EHMT1 (UniProt Q9H9B1) 0.063
DPY19L4 (UniProt Q7Z388) 0.036
EDC4 (UniProt Q6P2E9) 0.049
EEF1G isoform 2 (UniProt P26641) -0.098
DTD2 (UniProt Q96FN9) 0.17
EDF1 (UniProt O60869) 0.019
ECM1 isoform 4 (UniProt Q16610) -0.035
DYSF isoform 13 (UniProt O75923) 0.123
DSC2 (UniProt Q02487) 0.068
DYNC1I2 isoform 2 (UniProt Q13409) -0.012
DTX3L (UniProt Q8TDB6) -0.105
EFR3A (UniProt Q14156) 0.208
DPY30 (UniProt Q9C005) -0.097
E4F1 (UniProt Q66K89) 0.058
EHD4 (UniProt Q9H223) 0.019

Not a retest: entries from further up.
log2 fold change, inactive:
EDC4 (UniProt Q6P2E9) 0.049
EEF1G isoform 2 (UniProt P26641) -0.098
